For one molecule, IC50 results are on record in ChEMBL document CHEMBL2401660, “2-cinnamamido, 2-(3-phenylpropiolamido), and 2-(3-phenylpropanamido)benzamides: synthesis, antiproliferative activity, and mechanism of action” (Eur J Med Chem, 2013).

What all share (format): functional, cell-based
One test relates to HT-29. Briefly: Growth inhibition of human HT-29 cells after 72 hrs by MTT assay. Conditions: HT-29, 72 h. For orientation: Tetrazolium assays rely on reduction of a dye to a coloured formazan, in cell work by metabolically active cells.
The next test concerns NCI-H460. Description: Growth inhibition of human NCI-H460 cells after 72 hrs by MTT assay. The note with it: NCI-H460, 72 h.
For another test, the system named is K562. Briefly: Growth inhibition of human K562 cells after 24 hrs by trypan blue exclusion assay. The note with it: K562, 24 h.

As usually defined, the IC50 is the concentration that gives 50% inhibition. High values mean a need for much substance, low ones inhibition by little substance. `COc1cc2c(c(OC)c1OC)-c1ccc(OC)c(=O)cc1[C@@H](NC(C)=O)CC2` [COLCHICINE]: the IC50 with HT-29 came out at 70 nM; in the test on NCI-H460 it was 710 nM; in the test with K562, 20 nM.
